Reference: publication doi:10.1101/2024.08.19.608573
These are yes or no findings as the source states them, for the method shown. In cells and extracts the contact can be indirect. Binding calls can cover weak binding; strength is not graded here. Sequences can lack the tags named with a protein.

Biological target: T1, Cdca9-Flag (zebrafish) (UniProt P86347)
T1 sequence: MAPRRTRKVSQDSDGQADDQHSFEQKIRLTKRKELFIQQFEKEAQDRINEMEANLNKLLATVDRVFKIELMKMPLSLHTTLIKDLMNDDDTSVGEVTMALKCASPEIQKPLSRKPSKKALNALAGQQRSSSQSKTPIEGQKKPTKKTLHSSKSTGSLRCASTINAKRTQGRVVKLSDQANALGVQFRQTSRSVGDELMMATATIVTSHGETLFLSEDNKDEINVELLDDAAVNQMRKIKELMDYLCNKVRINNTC
Experiment: co-IP

binding	Substance
binds	Birc5b-GFP (zebrafish)
binds	Birc5b
